Experimental data published in US10232020B2 (priority 2014, dated 2019).

Experiment: solid-phase peptide synthesis
Settings: whole synthesis

In the case of HSQGTFTSDYSKYLDSRRAQDFVQWLMNTGPSSGAPPPS, the “final HPLC purity” value (RP-HPLC (214 nm or 220 nm), MALDI or ESI mass spectrometry, scale of the general procedure 0.2 mmole (Boc), 0.1 mmol (Fmoc)) is reported as “greater than 95%” and the isolated mass (scale 0.2 mmol) is reported as 198.1 mg.

Plain letter strings leave the end groups untold.
